# Data reported in PubChem BioAssay AID540276 (National Center for Advancing Translational Sciences (NCATS), 2011).
# Values joined by “and” are separate entries in the source; they are usually repeats but may differ in a detail not shown here. Identical values can stand only once. Out of some 300,000 compounds screened, about 5,400 (1.8%) were called active. The inconclusive results got no clear call from the source; some entries with a clear call stand among them for comparison. Calls come from the whole dose curve; tested in HEK293 cells. Where the call is inconclusive, the potency comes from a doubtful curve fit.
# Test: qHTS for inhibitors of binding or entry into cells for Marburg Virus
# Conditions: Marburg virus pseudotyped entry inhibition, cell reporter; series mostly up to 37.8 µM
# Potency is the fitted concentration of half-maximal effect.
row,Structure (SMILES),Potency
1,CC(C)(C)C(=O)NC(=S)Nc1cc(C(=O)O)ccc1Cl,"inconclusive: 5.62 µM [activator, single point]"
2,COC(=O)C1=NN(C(C)=O)C2(CC(=O)N(c3cccc(C)c3)C2=O)C1 (stereo unspecified),"inconclusive: 1.41 µM [inhibitor, partial curve]"
3,Cc1c(C(=O)NN)sc(=S)n1C,"inconclusive: 1.78 µM [inhibitor, partial curve, poor fit]"
4,Cn1c(SCc2c(Cl)cccc2Cl)nnc1-c1ccc2nonc2c1,inactive
5,COC(=O)c1ccc(SCc2cnc(Cl)s2)cc1,inactive
6,Cc1ccc(OCCn2cc(C(=S)N3CCCC3)c3ccccc32)cc1C,active: 3.16 µM
7,O=C(Nc1ccc(N2CCCCC2)cc1)c1ccccc1,"inconclusive: 7.3 µM [inhibitor, partial curve, poor fit]"
8,Nc1ccc(C(=O)N2CCCC2)cc1,inactive
9,O=C(Nc1cccc(-c2cc3ccccc3oc2=O)c1)c1ccc(Br)o1,inactive
10,Cc1ccc(C)c(C(=O)CCC(=O)NCc2ccc(Cl)cc2)c1,inactive
11,CC1Sc2ccc(S(=O)(=O)N3CCC(C(=O)N(C)Cc4ccco4)CC3)cc2NC1=O (stereo unspecified),"inconclusive: 6.31 µM [inhibitor, partial curve, poor fit]"
12,Nc1ccccc1C(=O)OCC(=O)Nc1ccc(Br)cc1F,inactive
13,CCn1c(/C=C/Nc2ccccc2)[n+](CC)c2ccc(Cl)cc21,"inconclusive: 14.1 µM [inhibitor, single point]"
14,Cc1cc(C)c(C#N)c(SCCS(=O)(=O)Cc2ccc(Cl)cc2)n1,inactive
15,O=C(O)C(Cc1ccnc2ccccc12)=NO,inactive
16,CCN(CC)S(=O)(=O)c1ccc(N2CCOCC2)c(NC(=O)c2cccc(C#N)c2)c1,"inconclusive: 35.5 µM [inhibitor, single point]"
17,Cc1ccc(Sc2ncccc2C(=O)NC2CCCCCC2)cc1C,"inconclusive: 6.31 µM [inhibitor, single point]"
18,O=C(OCC(=O)N1CCOCC1)c1ccc(O)cc1,"inconclusive: 10 µM [activator, partial curve, poor fit]"
19,Cc1ccc(-c2ccc(CN3C(C)C(=O)N(Cc4cn(Cc5ccco5)nn4)CCS3(=O)=O)cc2)cc1 (stereo unspecified),"inconclusive: 35.3 µM [inhibitor, partial curve, poor fit]"
20,O=C(O)c1ccc(NC(=O)c2cn(-c3ccccc3)nc2-c2cccc(Cl)c2)cc1,"inconclusive: 0.631 µM [inhibitor, full curve, poor fit]"
21,CCC(C)NC(=O)CCn1c(=O)c2cccn2c2ccc(F)cc21 (stereo unspecified),inactive
22,Cc1nn(C)c(C)c1S(=O)(=O)N1CCCC(C(=O)N2CCN(c3ccc(Cl)cc3)CC2)C1 (stereo unspecified),"inconclusive: 35.5 µM [inhibitor, single point]"
23,O=C(Nc1cc([N+](=O)[O-])ccc1Cl)C(Sc1ccccc1)c1ccccc1 (stereo unspecified),"inconclusive: 35.5 µM [inhibitor, single point]"
24,COc1ccc(OC)c(CN2CCCC(C(=O)c3ccccc3SC)C2)c1 (stereo unspecified),active: 2.51 µM

row,Structure (SMILES),Potency
1,Nc1cc(=O)[nH]c(SCc2nnnn2-c2ccc(Cl)cc2)n1,"inconclusive: 0.731 µM [activator, full curve, poor fit]"
2,O=C1/C(=C\c2ccco2)CCC/C1=C\c1ccco1,"inconclusive: 25.1 µM [inhibitor, single point]"
3,O=C(CCCn1c(=S)[nH]c2cc3c(cc2c1=O)OCO3)N1CCN(c2ncccn2)CC1,"inconclusive: 29.1 µM [inhibitor, single point]"
4,C/C(=N\OC(=O)NC(C)C)c1sc(-c2ccc(Cl)cc2)nc1C,"inconclusive: 6.31 µM [activator, single point]"
5,CC1CCN(c2ccccc2NC(=S)NC(=O)c2cccs2)CC1,"inconclusive: 15.8 µM [inhibitor, single point]"
6,COc1ccc(NC(=O)/C(C#N)=C/C=C/c2ccco2)cc1,"inconclusive: 6.31 µM [inhibitor, partial curve, poor fit]"
7,COc1cccc(NC(=O)CN(C)S(=O)(=O)c2ccc3nc(C)sc3c2)c1,inactive
8,Cc1ccc(Oc2ccc(NC(=O)Cn3ccsc3=N)cc2)cc1,"inconclusive: 14.1 µM [inhibitor, partial curve, poor fit]"
9,COC(=O)c1ccc(N2C(=O)CC(SCCN)C2=O)cc1 (stereo unspecified),"inconclusive: 6.31 µM [activator, single point]"
10,COc1ccc(NS(=O)(=O)c2ccc3oc(Nc4ccc5c(c4)OCCO5)nc3c2)cc1,inactive
11,O=C(Nc1cccc(F)c1)c1ccc(-c2ccccc2C(F)(F)F)o1,"inactive and inconclusive: 791 nM [activator, full curve, poor fit]"
12,Cc1nc(-c2ccc3c(c2)OCCO3)cs1,inactive
13,Cc1ccc(CNC(=O)C2CCC(CNc3nc(=S)[nH]c4ccccc34)CC2)cc1 (stereo unspecified),active: 3.55 µM
14,CCN(CC)S(=O)(=O)c1ccc(C(C)NC(=O)Cc2c[nH]c3ccccc23)cc1 (stereo unspecified),inactive
15,O=C(CSc1nnc(-c2cnccn2)n1Cc1ccco1)c1ccc2ccccc2c1,inactive
16,CCOc1ccc(NC(=O)COC(=O)COc2cccc3c2OC(C)(C)C3)cc1,inactive
17,CN(C(=O)C1CCC1C(=O)O)c1nc(-c2ccc(Cl)s2)cs1 (stereo unspecified),"inconclusive: 3.16 µM [activator, partial curve, poor fit]"
18,Cc1sc2nc(CN3CCCC3)nc(NCc3ccncc3)c2c1C,"inconclusive: 35.5 µM [inhibitor, single point]"
19,CCOC(=O)c1c(Nc2ccc(Cl)cc2)sc(/C=C2\C=Nc3ccccc32)c1O,"inconclusive: 10.3 µM [inhibitor, partial curve, poor fit]"
20,COc1ccc(C(=O)Nc2c(C(=O)c3ccccc3)oc3ccccc23)cc1,inactive
21,O=C(COC(=O)c1ccc(F)cc1Cl)NC1CCCCCCC1,inactive
22,CCN(C(=O)COc1ccccc1[N+](=O)[O-])C1CCS(=O)(=O)C1 (stereo unspecified),"inconclusive: 14.1 µM [activator, single point]"
23,COC(=O)c1cc(C(=O)OC)cc(-n2c(C)cc(C(=O)CC#N)c2C)c1,"inconclusive: 1.83 µM [inhibitor, partial curve, poor fit]"
24,Cc1cc(Nc2ccccc2)n(C(=O)c2ccccc2)n1,inactive

row,Structure (SMILES),Potency
1,OCCC1CN(Cc2cnc(-c3ccccc3)s2)CCN1C1CCCC1 (stereo unspecified),"inconclusive: 35.5 µM [inhibitor, single point]"
2,Cn1cc(C(=O)NS(=O)(=O)Nc2ccc(Br)cn2)c2ccccc21,"inconclusive: 12.6 µM [activator, partial curve, poor fit]"
3,Cn1cccc1-c1nc2ccc(NC(=O)c3ccco3)cc2[nH]1,"inconclusive: 35.5 µM [inhibitor, single point]"
4,COc1ccc(/C(C)=N/OC/C(O)=C(\C#N)c2nc3ccccc3[nH]2)cc1OC,"inconclusive: 6.31 µM [inhibitor, single point]"
5,Cn1c(=O)c2c(nc(CN3CCc4ccccc4C3)n2Cc2ccccc2F)n(C)c1=O,"inconclusive: 11.2 µM [inhibitor, partial curve, poor fit]"
6,O=C(Nc1ccc(CN2CCCCC2)cc1)c1ccc2c(c1)OCO2,inactive
7,CCOC(=O)c1c(NC(=O)COC(=O)CCS(=O)(=O)c2ccc(C)cc2)sc(C)c1C,"inconclusive: 4.47 µM [inhibitor, full curve, poor fit]"
8,COc1cc2c(cc1OC)CN(CC(=O)Nc1ccccc1C(=O)NCc1ccccc1)CC2,"inconclusive: 25.1 µM [inhibitor, single point]"
9,Cc1nn(-c2ccccc2)c(N2CCCC2)c1/C=N/NC(=O)c1cccc(S(=O)(=O)Nc2ccc(Cl)cc2)c1,"inconclusive: 12.6 µM [inhibitor, partial curve]"
10,CC1=CC(C)(C)N(S(=O)(=O)c2ccc(C)cc2)c2cc(C)ccc21,active: 2.59 µM
11,CC(C)(C)C(=O)Nc1cc2nn(-c3ccccc3)nc2cc1Cl,active: 0.411 µM
12,CCNC(=O)CN(c1ccccc1)S(=O)(=O)c1ccc(Cl)cc1,inactive
13,Cc1cccc(C(=O)NC(=S)NCc2ccccc2)c1,inactive
14,Cc1ccc(C2CC(c3cccc(C)c3)n3ncnc3N2)cc1 (stereo unspecified),inactive
15,CCCCn1c(N)c(N(CC(C)C)C(=O)C2CCN(S(=O)(=O)c3ccc(C)cc3C)CC2)c(=O)[nH]c1=O,"inconclusive: 6.31 µM [inhibitor, single point]"
16,COc1ccc(C(=O)N2c3ccccc3C(=O)OC2c2ccc3c(c2)OCO3)cc1 (stereo unspecified),inactive
17,COc1ccc(Cl)cc1NC(=O)CN(C)C(=O)CN1C(=O)NC2(CCCC2)C1=O,"inconclusive: 0.708 µM [inhibitor, single point]"
18,CC(C(=O)O)N1C(=O)CSC1=S (stereo unspecified),"inconclusive: 22.4 µM [inhibitor, single point]"
19,Cc1ccc(S(=O)(=O)NCC(=O)N(CC(=O)NC2CCCC2)c2ccc3c(c2)OCCO3)cc1,inactive
20,Cc1c([N+](=O)[O-])nnn1-c1cc(Cl)cc(Cl)c1,"inconclusive: 10 µM [inhibitor, partial curve, poor fit]"
21,CC(c1ccccc1)n1c(SCC(=O)N2CC(=O)Nc3ccccc32)nc2ccccc2c1=O (stereo unspecified),"inconclusive: 35.5 µM [inhibitor, single point]"
22,Cc1nc(-c2c(-c3ccc(O)cc3O)noc2C(F)(F)F)cs1,"inconclusive: 35.5 µM [inhibitor, single point]"
23,CCc1nnc(NC(=O)C2Cc3ccccc3CN2S(=O)(=O)c2cccs2)s1 (stereo unspecified),inactive
